Our source for the binding values is patent US20260049144A1 (Johns Hopkins, published 2026).

Amino acid sequences for entries named in this document (tags omitted).
UniProt Q9NZQ7: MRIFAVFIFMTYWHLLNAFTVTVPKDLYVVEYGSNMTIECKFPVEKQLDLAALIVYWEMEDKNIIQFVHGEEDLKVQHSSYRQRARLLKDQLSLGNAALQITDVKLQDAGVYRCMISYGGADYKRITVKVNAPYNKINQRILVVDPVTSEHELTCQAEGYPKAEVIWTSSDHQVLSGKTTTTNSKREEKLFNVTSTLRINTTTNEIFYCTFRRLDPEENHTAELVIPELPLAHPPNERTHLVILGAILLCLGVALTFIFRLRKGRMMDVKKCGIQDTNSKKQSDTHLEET

Test [1] addresses PD-L1 extracellular domain (ECD) (UniProt Q9NZQ7). Briefly: BLI competition: D12 scFv immobilized on the tip, 1000 nM PD-L1, soluble B8 VNAR titrated as competitor.
Test [2] shares this target. Briefly: BLI competition: B8 VNAR immobilized on the tip, 100 nM PD-L1, soluble B8 VNAR titrated as competitor.
The target is the same in test [3]. Briefly: BLI competition: atezolizumab scFv immobilized on the tip, 100 nM PD-L1, soluble B8 VNAR titrated as competitor.
For test [4] the target is unchanged. The experiment in a line: yeast-displayed VNAR library selection (MACS/FACS).
For test [5] the target is unchanged. Briefly: yeast surface display of the VNAR clone, titration of soluble PD-L1, flow cytometry (MFI).
Test [6] shares this target. The experiment in a line: BLI competition: B8 VNAR immobilized on the tip, 100 nM PD-L1, soluble A9 VNAR titrated as competitor.
Test [7] shares this target. The experiment in a line: BLI competition: D12 scFv immobilized on the tip, 1000 nM PD-L1, soluble A9 VNAR titrated as competitor.
Test [8] has the same target. The experiment in a line: BLI competition: atezolizumab scFv immobilized on the tip, 100 nM PD-L1, soluble A9 VNAR titrated as competitor.

Results are given in words; binding and its absence hold for the method and conditions named. Some results given as binding are weak or reduced against the parent protein; the word gives no strength.

B1: B8 VNAR (VNAR)
VNAR: ARVDQTPQTITKETGESLTINCVLRDASYALGSTCWYRKKSGSTNEESISIGGRYVETVNSGSKSFSLRINDLTVEDSGTYRCGVDSWCPPVCSWAYAGCGDGTAVTVN
notes: VNAR (shark single domain); Measured on yeast and as a soluble fragment (BLI); Not the same as B8 scFv
As to B1, the binding entry in test [1], in test [2], in test [3] and in test [4] was “binds” in each case.

B2: B11 VNAR (VNAR)
VNAR: ARVDQTPQTITKETGESLTINCVLRDSNCALSSTYWYRKKSGSTNEESISKGGRYVETVNSGSKSFSLRINDLTVEDSGTYRCRLFVSWLSDYDCATYYVSGGGTVVTVN
As to B2, the binding entry in test [4] is “binds”.

B3: C7 VNAR (VNAR)
VNAR: ARVDQTPQTITKETGESLTINCVVRDSACALVRTFWYRKKSGSTNEESISKGGRYVETVNSGSKSFSLRINDLTVEDSGTYRCKVFGWCRMRDVYGGGTVVTVN
notes: Not the same as C7 scFv
For the molecule B3, the binding result in test [4] and in test [5] was “binds” in each case.

B4: C4 VNAR (VNAR)
VNAR: ARVDQTPLTITKETGESLTINCVLRDSNCALSSTYWYRKSSGSTNEEIISKGGRYVETVNSGSNSFSLRINDLTVEDSGTYRCKVFGWCRMRDVYGGGTVVTVN
For the molecule B4, in test [4], the binding result is “binds”.

B5: A9 VNAR (VNAR)
VNAR: ARVDQTPQTITKETGESLTINCVVRDTACALVRTFWYRKKSGSTNEESISKGGRYVETVNRGSKSFSLRINDLTVEDSGTYRCKVFGWCRMRDVYGGGTVVTVN
notes: VNAR (shark variable new antigen receptor single domain) from nurse sharks immunised with the PD-L1 ECD; Measured on yeast and as a soluble fragment (BLI)
In the case of B5, the binding entry in test [6], in test [7], in test [8] and in test [4] was “binds” each time.
